Measurements reported in publication PMC3473359, “Formation of a heterooctameric complex between aspartate α-decarboxylase and its cognate activating factor, PanZ, is CoA-dependent” (Biochemical and Biophysical Research Communications, 2012).
Results are given in words; binding and its absence hold for the method and conditions named. Where a sequence is shown, tags or fusion partners need not be part of it.

Target: His-tagged PanZ (E. coli) (UniProt P37613)
Assay: SEC; Hi-Load 26/60 Superdex 75; 50 mM Tris-HCl, 100 mM NaCl, 0.1 mM DTT, pH 7.4; elution volumes of each protein alone; both purified

binding: no binding
B1: His-tagged PanZ (protein, UniProt P37613 1-127)
chain: MKLTIIRLEKFSDQDRIDLQKIWPEYSPSSLQVDDNHRIYAARFNERLLAAVRVTLSGTEGALDSLRVREVTRRRGVGQYLLEEVLRNNPGVSCWWMADAGVEDRGVMTAFMQALGFTAQQGGWEKC
